Measured values published in article doi:10.1101/2020.02.12.945204 (bioRxiv, 2020).
Results are given in words; binding and its absence hold for the method and conditions named. Some results given as binding are weak or reduced against the parent protein; the word gives no strength.

The chains behind the UniProt entries cited, without tags or fusion partners. Residues count along the entry.
UniProt P06179, 2-495: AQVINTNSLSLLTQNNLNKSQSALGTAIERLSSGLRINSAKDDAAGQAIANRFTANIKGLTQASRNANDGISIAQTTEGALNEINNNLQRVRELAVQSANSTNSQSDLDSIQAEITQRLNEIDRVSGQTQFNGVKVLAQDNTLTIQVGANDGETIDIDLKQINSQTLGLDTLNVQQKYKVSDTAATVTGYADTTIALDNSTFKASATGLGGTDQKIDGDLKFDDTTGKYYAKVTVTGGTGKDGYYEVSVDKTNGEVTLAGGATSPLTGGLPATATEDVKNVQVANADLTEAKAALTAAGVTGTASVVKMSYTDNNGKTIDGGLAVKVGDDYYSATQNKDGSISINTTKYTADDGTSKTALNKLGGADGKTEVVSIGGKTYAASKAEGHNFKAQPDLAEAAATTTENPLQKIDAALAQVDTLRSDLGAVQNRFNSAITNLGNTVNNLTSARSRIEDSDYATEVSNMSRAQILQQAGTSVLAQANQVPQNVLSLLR

How the values were obtained:
[1] = target: phase-1 (P1) flagella (polymeric FliC flagellin) from S. Typhimurium SL1344 (S. Typhimurium) (UniProt P06179); experiment: SEC
[2] = target: T1, recombinant human galectin-4 (human) (UniProt P56470); experiment: ELISA
T1 sequence: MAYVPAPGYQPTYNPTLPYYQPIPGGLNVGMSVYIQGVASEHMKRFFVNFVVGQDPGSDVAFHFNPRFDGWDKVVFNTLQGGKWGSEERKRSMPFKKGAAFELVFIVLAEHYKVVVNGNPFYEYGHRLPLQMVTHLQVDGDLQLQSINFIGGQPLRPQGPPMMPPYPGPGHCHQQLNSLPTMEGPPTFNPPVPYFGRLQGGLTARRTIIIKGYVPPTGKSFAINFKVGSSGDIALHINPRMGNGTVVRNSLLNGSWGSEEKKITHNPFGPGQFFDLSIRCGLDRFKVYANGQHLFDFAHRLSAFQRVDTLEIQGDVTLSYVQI

Substance: phase-1 (P1) flagella (polymeric FliC flagellin) from S. Typhimurium SL1344 (from UniProt P06179 2-495)
- binding [1]: binds
- binding [2]: binds
